# Assay results published in the supplement of paper PMC7877785.
# ± gives the uncertainty stated by the source. Many of these values have a large error.
# Assay: self-splicing fitness, log relative to wild type (ln ratio); higher = more splicing; Tetrahymena group I intron in knt gene, E. coli kanamycin selection, DiMSum; sequences stand for … in CUCUCU…GGAGGGAAAAGUUAUCAGGCAUGCACCUGGUAGCUAGUCUUUAAACCAAUAGAUUGCAUCGGUUUAAAAGGCAAGACCGUCAAAUUGCGGGAAAGGGGUCAACAGCCGUUCAGUACCAAGUCUCAGGGGAAACUUUGAGAUGGCCUUGCAAAGGGUAUGGUAAUAAGCUGACGGACAUGGUCCUAACCACGCAGCCAAGUCCUAAGUCAACAGAUCUUCUGUUGAUAUGGAUGCAGUUCACAGACUAAAUGUCGGUCGGGGAAGAUGUAUUCUUCUCAUAAGAUAUAGUCGGACCUCUCCUUAAUGGGAGCUAGCGGAUGAAGUGAUGCAACACUGGAGCCGCUGGGAACUAAUUUGUAUGCGAAAGUAUAUUGAUUAGUUUUGGAGUACUCGUGGUCG
# Outline: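 A randomised library covering all eight P1ex-region intron nucleotides was built with the intron in the knt kanamycin-resistance gene on pET-22b(+) and held in E. coli BL21(DE3). Cells were grown overnight at 37°C or 30°C on LB agar, with or without 25 μg/mL kanamycin, plus 100 μg/mL carbenicillin, 50 μM IPTG and 0.2% rhamnose, and pooled colonies were amplicon-sequenced on an Illumina HiSeq 2500. DiMSum fitness is the error-weighted combination of wild-type-normalised replicate fold changes, kanamycin versus none.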
Sequence,self-splicing fitness (ln) (37 °C),self-splicing fitness (ln) (30 °C)
GGCCAGCAAUAUUACGUCAC,-2.47 ± 0.76,–
GGGGAGCAAUAUUACGCCCC,-2.54 ± 1.1,-0.135 ± 1.2
UGACAGCAAUAUUACGCUAU,-1.09 ± 0.1,-3.7 ± 0.2
AUGGAGCAAUAUUACGAAGC,-2.16 ± 0.79,-3.57 ± 0.73
UCUGAGCAAUAUUACGGCCC,-0.906 ± 0.61,-0.638 ± 0.93
CCGUAGCAAUAUUACGGACA,-1.82 ± 0.52,–
AUCGAGCAAUAUUACGCCUA,–,-2.72 ± 0.51
CUUUAGCAAUAUUACGUUGA,–,-5.24 ± 1
GGUCAGCAAUAUUACGCAGA,–,-2.7 ± 0.76
GACGAGCAAUAUUACGAAAA,–,-3.31 ± 0.56
CUAUAGCAAUAUUACGGCCC,-1.79 ± 1.2,–
GACUAGCAAUAUUACGCUCC,-2.16 ± 1.1,–
UAGGAGCAAUAUUACGUUCC,-2.58 ± 0.62,–
CCGGAGCAAUAUUACGCCUC,–,-4.49 ± 1
CAUGAGCAAUAUUACGCGAC,–,-3.71 ± 0.52
AUUGAGCAAUAUUACGUGAC,-1.61 ± 0.45,-4.25 ± 0.74
UCACAGCAAUAUUACGUCUA,-0.331 ± 0.075,-1.25 ± 0.077
UUGCAGCAAUAUUACGAAUU,-0.985 ± 0.19,-2.18 ± 0.18
UAUUAGCAAUAUUACGUGUG,-0.549 ± 0.084,-0.846 ± 0.067
GAUGAGCAAUAUUACGCGUC,-1.37 ± 1.2,–
UUUCAGCAAUAUUACGCGAC,-2.05 ± 0.5,–
CUGCAGCAAUAUUACGAAGU,-3.86 ± 0.59,–
CGGGAGCAAUAUUACGGGAU,-2.2 ± 0.56,–
GGAGAGCAAUAUUACGUAGC,–,-3.63 ± 1

Sequence,self-splicing fitness (ln) (37 °C),self-splicing fitness (ln) (30 °C)
CUUGAGCAAUAUUACGAACA,-2.98 ± 0.75,-0.631 ± 0.61
GCCCAGCAAUAUUACGCCGU,-0.492 ± 0.094,-0.724 ± 0.092
GAUGAGCAAUAUUACGGGCU,-2.62 ± 0.64,–
GCAGAGCAAUAUUACGCCAG,-2.15 ± 0.78,–
CUUUAGCAAUAUUACGUCCU,–,-3.32 ± 0.61
CAUUAGCAAUAUUACGCCAU,-2.04 ± 0.65,-4.05 ± 1
CGUAAGCAAUAUUACGGAUA,–,-3.81 ± 0.73
ACAGAGCAAUAUUACGACCG,-2.14 ± 0.84,-3.66 ± 0.74
UGAAAGCAAUAUUACGCAGC,–,-3.91 ± 0.51
UGAAAGCAAUAUUACGACCC,-1.33 ± 0.63,–
UGAAAGCAAUAUUACGUAAC,–,-5.05 ± 0.51
ACAGAGCAAUAUUACGUAAA,-2.09 ± 0.13,-3.71 ± 0.16
UUGGAGCAAUAUUACGGCGC,-1.5 ± 0.69,-3.12 ± 1.1
AGAGAGCAAUAUUACGGGCC,-2.28 ± 0.78,-1.85 ± 0.65
AGAGAGCAAUAUUACGUUUA,–,-3.2 ± 0.64
CUAGAGCAAUAUUACGGAUU,–,-5.04 ± 0.72
AUCAAGCAAUAUUACGAAGC,-2.79 ± 0.74,–
GUGCAGCAAUAUUACGUCUG,-1.37 ± 0.55,-3.63 ± 1
UCUGAGCAAUAUUACGACAC,-0.0848 ± 1.2,-1.27 ± 1.4
AGGAAGCAAUAUUACGGAUA,–,-2.38 ± 0.56
GUUGAGCAAUAUUACGUACG,-2.31 ± 0.45,-2.57 ± 0.39
CUGGAGCAAUAUUACGCCCG,-1.26 ± 0.56,–
GUUCAGCAAUAUUACGUACC,0.255 ± 0.81,-2.66 ± 1.1
CCAUAGCAAUAUUACGAAGC,-2.39 ± 0.5,–

Sequence,self-splicing fitness (ln) (37 °C),self-splicing fitness (ln) (30 °C)
UCGGAGCAAUAUUACGCAAU,-1.61 ± 0.61,–
GCUGAGCAAUAUUACGGGCU,-3.34 ± 0.52,–
GUCUAGCAAUAUUACGACAU,-0.146 ± 0.032,-0.643 ± 0.014
CUUCAGCAAUAUUACGUCCU,-2.16 ± 0.56,-4.12 ± 1
GUGGAGCAAUAUUACGGCUU,-1.79 ± 0.53,–
CGUUAGCAAUAUUACGGGGA,–,-4.1 ± 1
AUAUAGCAAUAUUACGUUGU,-4.04 ± 0.51,–
CAUGAGCAAUAUUACGGACC,-1.5 ± 0.69,-3.25 ± 0.54
GCCAAGCAAUAUUACGCAUG,-2.22 ± 0.3,-4.41 ± 0.46
CGCGAGCAAUAUUACGCUAU,-2.2 ± 0.23,-3.44 ± 0.34
GAUGAGCAAUAUUACGCUCC,-2.64 ± 0.54,–
AGAGAGCAAUAUUACGGACA,–,-2.38 ± 0.76
UCGGAGCAAUAUUACGAAGG,-2.21 ± 0.63,–
CCGGAGCAAUAUUACGACAC,-2.8 ± 0.53,-6.28 ± 1
CACUAGCAAUAUUACGGCCC,–,-2.79 ± 0.57
GCAUAGCAAUAUUACGCUUC,–,-4.54 ± 0.51
UCUUAGCAAUAUUACGUCAU,-1.57 ± 0.59,–
UAUAAGCAAUAUUACGGAGA,-2.33 ± 0.46,-3.11 ± 0.36
AACGAGCAAUAUUACGGCUC,-2.63 ± 0.62,–
UUUUAGCAAUAUUACGAUUC,-0.988 ± 0.54,-3.21 ± 1.1
UCAGAGCAAUAUUACGGACA,-2.82 ± 0.62,-3.88 ± 0.73
CAAGAGCAAUAUUACGUUCC,-1.65 ± 0.54,–
GAAUAGCAAUAUUACGUGUA,-1.49 ± 0.13,-1.82 ± 0.12
CGGCAGCAAUAUUACGCGGA,–,-3.57 ± 1

Sequence,self-splicing fitness (ln) (37 °C),self-splicing fitness (ln) (30 °C)
UAUAAGCAAUAUUACGUCUC,–,-4.42 ± 0.73
CUAUAGCAAUAUUACGCAAG,-2.22 ± 0.18,-3.11 ± 0.2
CGAGAGCAAUAUUACGCCAC,-1.38 ± 0.74,-5.25 ± 1
UCGAAGCAAUAUUACGAGUC,-2.77 ± 0.62,–
UGGGAGCAAUAUUACGCUAC,0.917 ± 1.1,0.0943 ± 0.78
CUUAAGCAAUAUUACGCAUC,–,-4 ± 1
CGAGAGCAAUAUUACGAUCG,-1.66 ± 0.53,–
CAUUAGCAAUAUUACGACUA,-1.33 ± 0.56,–
GUGGAGCAAUAUUACGAGAC,-0.146 ± 0.5,-0.619 ± 0.52
UUAGAGCAAUAUUACGCCCU,–,-3.06 ± 1.1
UACUAGCAAUAUUACGCCAC,-2.43 ± 0.64,-4.89 ± 0.59
GGUUAGCAAUAUUACGAGCC,0.171 ± 0.92,-1.96 ± 1.2
CUGAAGCAAUAUUACGUCCA,-2.36 ± 0.54,–
CUGAAGCAAUAUUACGGCAG,-0.657 ± 0.14,-0.522 ± 0.11
GAGCAGCAAUAUUACGCCUA,0.0984 ± 0.085,-0.758 ± 0.064
GGUGAGCAAUAUUACGGAGG,-2.59 ± 0.55,–
CACUAGCAAUAUUACGUCGA,-1.48 ± 0.1,-1.58 ± 0.13
AUAUAGCAAUAUUACGUCCG,–,-3.17 ± 0.77
UAUAAGCAAUAUUACGGCCG,0.0314 ± 0.26,0.336 ± 0.23
GGAGAGCAAUAUUACGCUAA,-4.21 ± 1,-4.03 ± 0.74
GCGUAGCAAUAUUACGAACC,–,-0.706 ± 0.56
CUGGAGCAAUAUUACGGUGG,-1.93 ± 0.12,-3.55 ± 0.14
CAGGAGCAAUAUUACGCGGU,–,-4.7 ± 1

# Complete entries as entered above. Values in the order: self-splicing fitness (ln) (37 °C) | self-splicing fitness (ln) (30 °C)
# AUGGAGCAAUAUUACGAAGC is listed as -2.16 ± 0.79 | -3.57 ± 0.73
# CUUCAGCAAUAUUACGUCCU is listed as -2.16 ± 0.56 | -4.12 ± 1
# GGGGAGCAAUAUUACGCCCC is listed as -2.54 ± 1.1 | -0.135 ± 1.2
# AUCAAGCAAUAUUACGAAGC is listed as -2.79 ± 0.74 | –
